These results are taken from patent US8968703B2, “13C-MR detection using hyperpolarised 13C-fructose” (GE Healthcare Limited, priority 2009, dated 2015).

The subject of this data set is TRAMP mouse prostate tumor. As to the kind of experiment: In vivo 13C 3D MRSI in transgenic model of prostate cancer (TRAMP). The note with it: diffuse prostate tumor.

On to `O=[13C](CO)[C@@H](O)[C@H](O)[C@H](O)CO` [fructose, [2-^13C]-fructose], for which the “Ratio of composite furanose resonance to β-fructopyranose resonance, tumor vs surrounding tissue” value was “increased relative to the surrounding tissue”. The “Composite β-fructofuranose and β-fructofuranose-6-phosphate resonance, tumor vs surrounding benign tissues” value (80 mM hyperpolarized fructose injection) is recorded as “higher in the regions of diffuse tumor”.
